Experimental data reported in the supplement of paper PMC6078165.
Values are relative to the signal before dosing, not to a vehicle control; the signal also falls without drug.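 The cancer cells are triple-negative breast cancer lines of basal-like or mesenchymal-like type, grown without fibroblasts. A drop in red signal reflects loss of mitochondrial integrity, a stand-in for apoptotic death.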

Tests used:
Experiment in all cases: relative JC-1 red fluorescence (viability) vs pre-drug, monoculture (fraction); higher = more viable cancer cells
Details in all cases: coculture fibroblast: none (monoculture)
[1] = test system: BT20
Experimental: (§1)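 JC-1 labelled TNBC cells grown in monoculture (density kept equal with unlabelled cancer cells) in 384-well plates in FluoroBrite medium, treated with one of 42 anticancer drugs at 0.1, 1, 10 or 100 uM. JC-1 red fluorescence (mitochondrial integrity, surrogate of apoptotic death) was read by plate reader every 8 h for 72 h. Values are normalised to each well's pre-drug value, with background from alamethicin. The stock of one drug was tenfold lower, so its dose labels may be too high. Monoculture values are repeated alongside each fibroblast plate and are averaged here.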

[2] = test system: MDAMB231
Experimental: as §1

[3] = test system: MDAMB436
Experimental: as §1

[4] = test system: MDAMB468
Experimental: as §1

CN(C)CCOc1ccc(/C(=C(/CCCl)c2ccccc2)c2ccccc2)cc1 [Toremifene]
relative JC-1 red fluorescence
Details | 8 h | 16 h | 24 h | 32 h | 40 h | 48 h | 56 h | 64 h | 72 h
[1], 0.1 µM | 0.966 | 0.836 | 0.775 | 0.7 | 0.639 | 0.61 | 0.572 | 0.55 | 0.538
[1], 1 µM | 0.9795 | 0.9095 | 0.839 | 0.781 | 0.766 | 0.748 | 0.724 | 0.702 | 0.691
[1], 10 µM | 0.952 | 0.8718 | 0.884 | 0.862 | 0.86 | 0.865 | 0.854 | 0.853 | 0.848
[1], 100 µM | 0.374 | 0.232 | 0.211 | 0.148 | 0.109 | 0.08818 | 0.0602 | 0.039 | 0.0217
[2], 0.1 µM | 0.7528 | 0.667 | 0.738 | 0.653 | 0.616 | 0.625 | 0.605 | 0.648 | 0.6493
[2], 1 µM | 0.768 | 0.769 | 0.624 | 0.668 | 0.621 | 0.584 | 0.547 | 0.55 | 0.54
[2], 10 µM | 0.811 | 0.83374 | 0.822 | 0.849 | 0.812 | 0.787 | 0.763 | 0.763 | 0.746
[2], 100 µM | 0.47 | 0.345 | 0.361 | 0.206 | 0.135 | 0.0855 | 0.0419 | 0.0264 | 0.03
[3], 0.1 µM | 0.869 | 0.7206 | 0.739 | 0.6915 | 0.676 | 0.682 | 0.671 | 0.674 | 0.688
[3], 1 µM | 0.884 | 0.794 | 0.7739 | 0.7122 | 0.683 | 0.666 | 0.643 | 0.633 | 0.6226
[3], 10 µM | 0.907 | 0.88 | 0.869 | 0.809 | 0.769 | 0.729 | 0.692 | 0.66 | 0.636
[3], 100 µM | 0.537 | 0.404 | 0.359 | 0.282 | 0.227 | 0.183 | 0.146 | 0.111 | 0.0839
[4], 0.1 µM | 0.8924 | 0.809 | 0.729 | 0.6537 | 0.6113 | 0.595 | 0.549 | 0.519 | 0.505
[4], 1 µM | 0.9191 | 0.872 | 0.8301 | 0.78005 | 0.7423 | 0.716 | 0.683 | 0.661 | 0.653
[4], 10 µM | 0.859 | 0.765 | 0.776 | 0.839 | 0.75 | 0.7145 | 0.896 | 0.852 | 0.769
[4], 100 µM | 0.556 | 0.417 | 0.354 | 0.288 | 0.228 | 0.196 | 0.147 | 0.111 | 0.0848
